Experimental data: patent US12661329B2, “Methods of generating oligodendrocytes” (Hadasit Medical Research Services and Development Ltd., priority 2019, dated 2026)
For at least one compound, name, drawing or mass did not settle the structure.

Tested on: hESC-derived pre-OLs (MBP reporter cells)
Assay: Maturation of MBP-Tomato reporter pre-OLs under normoxia or after 48 h hypoxia (in vitro white matter injury model)
Assay type: cell-based, human
Conditions: Trametinib (0.5 mM) alone or with noggin, vs vehicle (FIG. 14)
Procedure: Human ESCs (HES1 passages 21 to 42 with a normal karyotype) were cultured as described. hESC colonies were picked up by means of collagenase IV (1 mg/ml; GIBCO-BRL, Gaithersburg, MD) and placed into ultralow adherent culture dishes (Thermo Scientific Nunc HydroCell) to favor sphere aggregation. Spheres were cultured in NDM media consisting of Neural Differentiation Medium (Gibco) and N2B27 supplements with 20 ng/ml FGF-2. Spheres were first patterned with the dual-SMAD inhibitors LDN193189 (1 μM, Cayman Chemical, Ann Arbor, MI) and SB431542 (5 μM, SB; PeproTech Inc, Rocky Hill, NJ) until day 4 when SB431542 was withdrawn and the spheres were further cultured for additional 10 days in the presence LDN193189 and FGF-2. At day 14, the spheres were caudalized and ventralized using 0.1 μM all-trans retinoic acid and 0.5 μM purmorphamine, respectively (PeproTech Inc, Rocky Hill, NJ). At day 35, spheres were switched to modified SATO media, consisting of DMEM/F12, 10 ng/ml biotin, 60 ng/ml progesterone, 16 μg/ml putrescine, 20 μg/ml human insulin, 100 μg/ml apotransferrin, 5 ng/ml sodium selenite, 100 μg/ml bovine serum albumin (BSA), 60 μg/ml N-acetyl cysteine and 2 μg/ml forskolin. The medium was further supplemented with 20 ng/ml FGF-2, 0.5 μM Purmorphamine, 5 ng/ml NT3 and 200 nM ascorbic acid. Media was changed every 3 days for 6-7 weeks. […]

CC(=O)Nc1cccc(-n2c(=O)n(C3CC3)c(=O)c3c(Nc4ccc(I)cc4F)n(C)c(=O)c(C)c32)c1 [Trametinib]
proportion of MBP Tomato co-expressing oligodendrocytes (hypoxia exposed, one week following hypoxia): increased proportion
proportion of MBP Tomato co-expressing oligodendrocytes (normoxia, one week): increased proportion
